Results on one substance are retold here after US6988446B2 (priority 1996, dated 2006).

This data set in a line: general procedure: peptide synthesis; 2-chlorotrityl chloride resin. To be noted: whole synthesis, HPLC.

As to Cit^1-BK, the “purity (crude or final not stated)” value is given as “greater than 98% pure”.
